Data source: PubChem BioAssay AID1224830 (NIAID, 2016)
Assay: 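Host factors that control LPS-induced TNF expression in human macrophages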 (primary screen). System: human THP-1 monocytic leukaemia cells, TNF dual-luciferase reporter clone, PMA-differentiated to macrophage-like cells. Reagents: siRNA pool against human genes, 50 nM. Duration: LPS for 4 h, given about 3 days after siRNA transfection. Conditions: bacterial LPS (TLR4 ligand), 10 ng/ml. Measured: 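TNF firefly reporter luminescence divided by renilla, normalised to the plate median, then turned into a robust z-score for each replicate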. Reading the numbers: TNF reporter robust z-score: higher = stronger TNF reporter response to LPS. Hit rule: 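Each well counts as active if its z-score is over 2.8 or under -1.5; controls are left without a call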.
Here is an unselected part of about 18,000 deposited reagents. About 2,900 of them (16%) count as active. 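Calls are made per well; low scores hint the gene aids the LPS response, high scores that it dampens it.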 Repeated entries: four replicate wells of each siRNA pool. Reagent sequences are not shown.

Gene | TNF reporter robust z-score | Outcome
EPSTI1 (epithelial stromal interaction 1) | 0.09 | inactive
EPSTI1 (epithelial stromal interaction 1) | -0.04 | inactive
EPSTI1 (epithelial stromal interaction 1) | 0.05 | inactive
EPSTI1 (epithelial stromal interaction 1) | 0.27 | inactive
IP6K3 (inositol hexakisphosphate kinase 3) | 1.33 | inactive
IP6K3 (inositol hexakisphosphate kinase 3) | 1.31 | inactive
IP6K3 (inositol hexakisphosphate kinase 3) | 1.23 | inactive
NLRP4 (NLR family pyrin domain containing 4) | -0.43 | inactive
NLRP4 (NLR family pyrin domain containing 4) | 0.92 | inactive
NLRP4 (NLR family pyrin domain containing 4) | 0.44 | inactive
NLRP4 (NLR family pyrin domain containing 4) | -0.24 | inactive
MS4A6A (membrane spanning 4-domains A6A) | 1.17 | inactive
MS4A6A (membrane spanning 4-domains A6A) | 3.31 | active
MS4A6A (membrane spanning 4-domains A6A) | 0.33 | inactive
MS4A6A (membrane spanning 4-domains A6A) | 2.72 | inactive
MAGEB6 (MAGE family member B6) | -0.89 | inactive
MAGEB6 (MAGE family member B6) | 0.11 | inactive
MAGEB6 (MAGE family member B6) | -0.81 | inactive
MAGEB6 (MAGE family member B6) | -0.47 | inactive
RAB11FIP2 (RAB11 family interacting protein 2) | -0.59 | inactive
RAB11FIP2 (RAB11 family interacting protein 2) | -0.84 | inactive
RAB11FIP2 (RAB11 family interacting protein 2) | -0.95 | inactive
GLRA3 (glycine receptor alpha 3) | -0.35 | inactive
GLRA3 (glycine receptor alpha 3) | -0.44 | inactive
GLRA3 (glycine receptor alpha 3) | 0.82 | inactive
GLRA3 (glycine receptor alpha 3) | 0.83 | inactive
PRRT3 (proline rich transmembrane protein 3) | 0.21 | inactive
PRRT3 (proline rich transmembrane protein 3) | -0.42 | inactive
PRRT3 (proline rich transmembrane protein 3) | -0.12 | inactive
PRRT3 (proline rich transmembrane protein 3) | -0.04 | inactive
PLG (plasminogen) | 1.75 | inactive
PLG (plasminogen) | 0.51 | inactive
PLG (plasminogen) | -0.28 | inactive
PLG (plasminogen) | 0.37 | inactive
MPV17L2 (MPV17 mitochondrial inner membrane protein like 2) | 0.87 | inactive
MPV17L2 (MPV17 mitochondrial inner membrane protein like 2) | -0.09 | inactive
MPV17L2 (MPV17 mitochondrial inner membrane protein like 2) | -0.02 | inactive
MPV17L2 (MPV17 mitochondrial inner membrane protein like 2) | -0.23 | inactive
SIRPA (signal regulatory protein alpha) | 0.07 | inactive
SIRPA (signal regulatory protein alpha) | -0.57 | inactive
SIRPA (signal regulatory protein alpha) | -0.08 | inactive
SIRPA (signal regulatory protein alpha) | -0.06 | inactive
CCNI (cyclin I) | 0.43 | inactive
CCNI (cyclin I) | 0.95 | inactive
CCNI (cyclin I) | 1.57 | inactive
CCNI (cyclin I) | 0.9 | inactive
VPS53 (VPS53 subunit of GARP complex) | 0.29 | inactive
VPS53 (VPS53 subunit of GARP complex) | -1.2 | inactive
VPS53 (VPS53 subunit of GARP complex) | 0.76 | inactive
VPS53 (VPS53 subunit of GARP complex) | 0.36 | inactive
GLE1 (GLE1 RNA export mediator) | 0.87 | inactive
GLE1 (GLE1 RNA export mediator) | -0.11 | inactive
GLE1 (GLE1 RNA export mediator) | 0.05 | inactive
GLE1 (GLE1 RNA export mediator) | -1.52 | active
FBXL19 (F-box and leucine rich repeat protein 19) | 2.51 | inactive
FBXL19 (F-box and leucine rich repeat protein 19) | -0.37 | inactive
FBXL19 (F-box and leucine rich repeat protein 19) | 0 | inactive
FBXL19 (F-box and leucine rich repeat protein 19) | 0.25 | inactive
CXXC1 (CXXC finger protein 1) | 0.06 | inactive
CXXC1 (CXXC finger protein 1) | -1.52 | active
CXXC1 (CXXC finger protein 1) | -1.24 | inactive
CXXC1 (CXXC finger protein 1) | 2.09 | inactive
BEST3 (bestrophin 3) | -0.07 | inactive
BEST3 (bestrophin 3) | -0.17 | inactive
BEST3 (bestrophin 3) | -0.1 | inactive
BEST3 (bestrophin 3) | 0.06 | inactive
PRR25 (proline rich 25) | 0.34 | inactive
PRR25 (proline rich 25) | 0.48 | inactive
PRR25 (proline rich 25) | 0.87 | inactive
PRR25 (proline rich 25) | 2.07 | inactive
OR6C74 (olfactory receptor family 6 subfamily C member 74) | -0.27 | inactive
OR6C74 (olfactory receptor family 6 subfamily C member 74) | -0.64 | inactive
OR6C74 (olfactory receptor family 6 subfamily C member 74) | -0.22 | inactive
OR6C74 (olfactory receptor family 6 subfamily C member 74) | 0.17 | inactive
GTF2H5 (general transcription factor IIH subunit 5) | -0.44 | inactive
GTF2H5 (general transcription factor IIH subunit 5) | 0.38 | inactive
GTF2H5 (general transcription factor IIH subunit 5) | -0.03 | inactive
GTF2H5 (general transcription factor IIH subunit 5) | 0.51 | inactive
MAGOH (mago homolog, exon junction complex subunit) | -0.06 | inactive
MAGOH (mago homolog, exon junction complex subunit) | -0.45 | inactive
MAGOH (mago homolog, exon junction complex subunit) | -0.17 | inactive
MAGOH (mago homolog, exon junction complex subunit) | -0.09 | inactive
CAPN15 (calpain 15) | 1.16 | inactive
CAPN15 (calpain 15) | 0.87 | inactive
CAPN15 (calpain 15) | -0.36 | inactive
CAPN15 (calpain 15) | 0.58 | inactive
BACE1 (beta-secretase 1) | -1.09 | inactive
BACE1 (beta-secretase 1) | -0.39 | inactive
BACE1 (beta-secretase 1) | -0.96 | inactive
BACE1 (beta-secretase 1) | -1.16 | inactive
SGMS1 (sphingomyelin synthase 1) | 0.03 | inactive
SGMS1 (sphingomyelin synthase 1) | 0.33 | inactive
SGMS1 (sphingomyelin synthase 1) | 0.94 | inactive
SGMS1 (sphingomyelin synthase 1) | 0.35 | inactive
SLC24A1 | -0.04 | inactive
SLC24A1 | 0.18 | inactive
SLC24A1 | 0.3 | inactive
SLC24A1 | 0.37 | inactive
TECPR2 (tectonin beta-propeller repeat containing 2) | -0.65 | inactive
TECPR2 (tectonin beta-propeller repeat containing 2) | -0.48 | inactive
TECPR2 (tectonin beta-propeller repeat containing 2) | -0.2 | inactive
TECPR2 (tectonin beta-propeller repeat containing 2) | -0.34 | inactive
SV2A (synaptic vesicle glycoprotein 2A) | -1.76 | active
SV2A (synaptic vesicle glycoprotein 2A) | -0.84 | inactive
SV2A (synaptic vesicle glycoprotein 2A) | -0.73 | inactive
FOXP1 (forkhead box P1) | 0.24 | inactive
FOXP1 (forkhead box P1) | 1.79 | inactive
FOXP1 (forkhead box P1) | 1.84 | inactive
FOXP1 (forkhead box P1) | 1.54 | inactive
HAT1 (histone acetyltransferase 1) | -1.27 | inactive
HAT1 (histone acetyltransferase 1) | -1.14 | inactive
HAT1 (histone acetyltransferase 1) | -0.82 | inactive
HAT1 (histone acetyltransferase 1) | -0.02 | inactive
